PubChem BioAssay AID1259254 – NCATS, 2017
Assay: 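Finding genes that stop cells copying their DNA twice in one cycle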 (primary screen). Cell system: human HCT116 colorectal cancer cells. Knock-down reagent: single siRNA against human genes. Duration: 3 days. Measured: 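Imaged Hoechst DNA stain sorts each cell into a cycle phase by DNA amount; per plate, G2 fraction set to 0% for non-targeting and 100% for GMNN siRNA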. Reading the numbers: G2 robust z-score: higher = more G2 cells, more excess DNA replication. Active means: 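An siRNA counts as active if its G2 robust z-score lies at least 5 MADs above the screen median; here such calls match roughly 38% of GMNN control or more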.
In all, the deposit lists about 59,000 reagents; below is a part drawn at random. About 1,550 of all reagents (2.6%) count as active. 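G2 share is only a proxy for re-replication; each gene was hit by three separate siRNAs, and active genes were retested.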 Entries without a mark were called inactive. Reagents against one gene are numbered here. Not all columns of the deposit are shown. Not given: the amount of reagent.

For MMP10 #1, what does the deposit list?
G2 robust z-score: -0.089

How did the screen score MMP10 #2?
G2 robust z-score: 1.43

How did the screen score MMP10 #3?
G2 robust z-score: -0.395

What did the screen give for PRR13 #1?
G2 robust z-score: -0.665

What did the screen give for PRR13 #2?
G2 robust z-score: 1.76

How did the screen score PRR13 #3?
G2 robust z-score: 2.19

What did the screen give for ASAP1 #1?
G2 robust z-score: 0.565

With ASAP1 #2, how do the results read?
G2 robust z-score: 0.549

What is on record for ASAP1 #3?
G2 robust z-score: -0.647

For LRRC3C #1, what does the deposit list?
G2 robust z-score: 0.489

For LRRC3C #2, what was measured?
G2 robust z-score: 0.13

For LRRC3C #3, what does the deposit list?
G2 robust z-score: -1.06
